Among all 390,000 compounds or so, about 910 (0.23%) were called active. The shares of active, inactive and inconclusive entries below differ from those in the screen. The call rests on the fitted dose curve; in most records, active means well fitted inhibition curve with a large enough effect; inconclusive means small, poorly fitted or top-dose-only effect; inactive means no such curve, though single readings can be large or run the other way. Where the call is inconclusive, the potency comes from a doubtful curve fit.
target: Ubiquitin carboxyl-terminal hydrolase 1 (Homo sapiens) (UniProt O94782); test: Inhibitors of USP1/UAF1: Primary Screen; details: recombinant USP1/UAF1, Ub-Rhodamine cleavage fluorescence; activity change, negative = inhibition: at 57.1 µM (top of the series); further: nearly all actives have a fitted effect of over 60% in size
In short: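 High-throughput fluorogenic screen: 1nM USP1/UAF1 complex, Ub-Rho substrate 150nM final, 50mM HEPES pH 7.8 with 0.5mM EDTA, 0.1 mg/ml BSA, 1mM TCEP and 0.01% Tween-20.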
On the % scale 0 is the no-effect control and ±100 the full control effect; potency means the concentration at half of the fitted maximal effect.

Amino acid sequences for entries named in this document (tags omitted). A change or cut given only in a name is not applied to a line headed by its entry.
UniProt O94782: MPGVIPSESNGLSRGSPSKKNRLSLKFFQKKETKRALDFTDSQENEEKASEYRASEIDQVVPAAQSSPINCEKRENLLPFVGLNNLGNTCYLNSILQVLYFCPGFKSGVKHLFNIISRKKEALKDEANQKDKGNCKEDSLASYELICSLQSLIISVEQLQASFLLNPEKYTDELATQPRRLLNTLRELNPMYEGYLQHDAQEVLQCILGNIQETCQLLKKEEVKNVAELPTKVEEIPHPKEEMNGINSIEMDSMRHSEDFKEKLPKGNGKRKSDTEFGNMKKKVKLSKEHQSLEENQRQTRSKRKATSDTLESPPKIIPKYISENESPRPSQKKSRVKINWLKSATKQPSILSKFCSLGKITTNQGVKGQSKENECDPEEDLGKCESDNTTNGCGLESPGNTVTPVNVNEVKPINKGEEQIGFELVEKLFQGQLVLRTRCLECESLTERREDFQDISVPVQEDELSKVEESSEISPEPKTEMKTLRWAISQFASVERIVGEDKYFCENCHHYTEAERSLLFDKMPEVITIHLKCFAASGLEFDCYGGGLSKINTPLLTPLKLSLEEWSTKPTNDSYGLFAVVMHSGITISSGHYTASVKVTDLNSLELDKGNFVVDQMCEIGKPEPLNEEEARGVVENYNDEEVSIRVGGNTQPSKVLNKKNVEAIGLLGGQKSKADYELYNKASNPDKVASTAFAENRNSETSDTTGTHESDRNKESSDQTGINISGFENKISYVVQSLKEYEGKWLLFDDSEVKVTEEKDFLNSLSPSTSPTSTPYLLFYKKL

Q: Which Potency does the source give for `C=Cc1ccc(N=Cc2c(O)ccc3ccccc23)cc1` here?
A: Its Potency is inconclusive: 63.1 µM [inhibitor, partial curve, poor fit].

Q: How did the Potency turn out when `N#C/C(=N\Nc1cccc(C(F)(F)F)c1)C(=O)c1csc(-c2cccnc2)n1` was run?
A: Its Potency is inconclusive: 28.2 µM [inhibitor, partial curve].

Q: With `Cc1cc2ncn(/N=C/c3ccc(-c4ccccc4)o3)c2cc1C` as the compound, how does the Potency read?
A: The Potency was inconclusive: 20 µM [inhibitor, partial curve].

Q: With `COC(=O)c1cc(Br)c(=O)n(-c2ccccc2OC)c1` as the compound, how does the Potency read?
A: Its Potency is “inactive”.

Q: For `Cc1ccc(NC(=O)CC2Oc3ccc(C)cc3NC2=O)c(C)c1` (stereo not given), which Potency is on record?
A: The Potency was inconclusive: 3.55 µM [inhibitor, partial curve].

Q: Which Potency does the source give for `O=C1N=c2ccccc2=C1c1sc(Nc2cccc(O)c2)nc1O` here?
A: The Potency was “inactive”.

Q: How did the Potency turn out when `Cc1ccc(Cl)cc1NC(=O)Cn1c(=O)cc(C)c2c(C)nn(C)c21` was run?
A: Its Potency is “inactive”.

Q: `CC(C)(C)c1csc(NC(=O)CS(=O)(=O)c2ccccc2)n1` was tested. Which Potency did it give?
A: Its Potency is inconclusive: 56.2 µM [inhibitor, partial curve, poor fit].

Q: Which Potency does the source give for `Cc1ccc(NC(=O)CN(Cc2ccco2)Cc2ccccc2O)cc1C` here?
A: The Potency was inconclusive: 35.5 µM [inhibitor, single point].

Q: With `COc1ccc2ccc3c(c2c1)N=CC1(O3)N(C)c2ccccc2C1(C)C` (stereo not given) as the compound, how does the Potency read?
A: Its Potency is inconclusive: 25.1 µM [inhibitor, partial curve].

Q: `CCc1cccc(C)c1NC(=O)Nc1ccc2c(c1)OCO2` was tested. Which Potency did it give?
A: Its Potency is “inactive”.

Q: Which Potency does the source give for `Cc1ccc(CSc2c(C)cnc3c2c(=O)n(C)c(=O)n3C)cc1` here?
A: Its Potency is inconclusive: 7.08 µM [inhibitor, full curve, poor fit].

Q: Which Potency does the source give for `CC(=O)c1ccc(NC(=O)Cn2nc(C(F)(F)F)c3c2CCC3)cc1` here?
A: Its Potency is inconclusive: 0.1 µM [inhibitor, full curve, poor fit].

Q: For `CC1=CC2=NC(=O)/C(=C/c3coc4ccc(Cl)cc4c3=O)C(=N)N2O1`, which Potency is on record?
A: Its Potency is active: 28.2 µM.

Q: Which Potency does the source give for `COCOCCn1cc(CN2CCS(=O)(=O)N(Cc3ccc(-c4ccncc4)cc3)C(C)C2=O)nn1` (stereo not given) here?
A: The Potency was inconclusive: 8.91 µM [inhibitor, partial curve].

Q: How did the Potency turn out when `Oc1ccc(-c2nc(-c3ccc(F)cc3)c(-c3ccncc3)[nH]2)cc1` was run?
A: The Potency was inconclusive: 3550 µM [inhibitor, partial curve].

Q: Which Potency does the source give for `CCCCCCOc1ccc(/C=C/C(=O)Nc2sc3c(c2C(=O)OC)CCC3)cc1OC` here?
A: The Potency was “inactive”.

Q: For `Cc1cc(O)c(C(C)C)cc1NC(=O)Nc1cc(Cl)ccc1Cl`, which Potency is on record?
A: The Potency was “inactive”.

Q: With `Cc1cc(NC(=O)CC(C)C)c(=O)n(Cc2c(F)cccc2Cl)c1` as the compound, how does the Potency read?
A: Its Potency is “inactive”.

Q: With `CNC(=O)CN(c1ccc(C23CC4CC(CC(C4)C2)C3)cc1)S(C)(=O)=O` as the compound, how does the Potency read?
A: The Potency was inconclusive: 8.91 µM [inhibitor, single point].

Q: Which Potency does the source give for `Cc1cc(Nc2ccc(Br)cc2)n2nc(-c3ccccc3C)nc2n1` here?
A: Its Potency is inconclusive: 39.8 µM [inhibitor, partial curve, poor fit].

Q: With `COC(C(=O)N/N=C(\C)c1ccc(O)cc1)c1ccccc1` (stereo not given) as the compound, how does the Potency read?
A: The Potency was inconclusive: 44.7 µM [inhibitor, partial curve, poor fit].

Q: With `COc1cc(/C=N/N(C)c2ccccc2)cc(Cl)c1O` as the compound, how does the Potency read?
A: The Potency was “inactive”.

Q: `Cc1ccc(C(=O)NC(=C(Cl)Cl)S(=O)(=O)c2ccc(C)cc2)cc1` was tested. Which Potency did it give?
A: Its Potency is “inactive”.

Q: For `CC(C)C[C@H](NC(=O)c1[nH]cnc1C(=O)N[C@H](C)c1ccccc1)C(=O)OC(C)(C)C`, which Potency is on record?
A: The Potency was inconclusive: 44.7 µM [inhibitor, partial curve, poor fit].

Q: Which Potency does the source give for `CCN(c1ccc(C)cc1C)S(=O)(=O)c1nnc(NC(=O)c2ccco2)s1` here?
A: Its Potency is “inactive”.

Q: For `Cc1ccc(N(C(=O)Cn2nnc3ccccc32)C(C(=O)NC2CCCCC2)c2cn(C)nc2C)cc1` (stereo not given), which Potency is on record?
A: Its Potency is inconclusive: 28.2 µM [inhibitor, single point].

Q: How did the Potency turn out when `CC(C)(C)c1ccc(CSC2=Nc3ccccc3C3=NC(CC(=O)NCc4cccs4)C(=O)N23)cc1` (stereo not given) was run?
A: The Potency was inconclusive: 44.7 µM [inhibitor, partial curve].

Q: For `CCC1CSC(Nc2ccc(C(=O)/C=C/c3ccc(Oc4ccccc4)cc3)cc2)=N1` (stereo not given), which Potency is on record?
A: The Potency was “inactive”.

Q: Which Potency does the source give for `Cc1cccc(C)c1NC(=O)C(=O)NCC1CCCN1S(=O)(=O)c1cccs1` (stereo not given) here?
A: Its Potency is “inactive”.

Q: How did the Potency turn out when `C#CCOCCOCCOCCNc1nc(N2CCN(C(=O)CCCCCCCCCCNC(=O)Cn3cc(C[C@@H](C)O)nn3)CC2)nc(N2CCN(C(=O)CCCCCCCCCCNC(=O)[C@@H]([C@H](C)CC)n3cc(CCCCCN)nn3)CC2)n1` was run?
A: Its Potency is inconclusive: 44.7 µM [inhibitor, partial curve].

Q: Which Potency does the source give for `O=c1c2ccccc2nc(/C=C/c2cccc3ccccc23)n1-c1ccc(F)cc1F` here?
A: Its Potency is inconclusive: 35.5 µM [inhibitor, partial curve].

Q: How did the Potency turn out when `Cc1nc(-c2ccc(S(=O)(=O)Nc3cc(Cl)ccc3C)cc2)co1` was run?
A: Its Potency is inconclusive: 0.794 µM [inhibitor, full curve].

Q: For `COc1ccc(-n2ncc3c2CC(C)(C)CC3NC(=O)c2oc(C)cc2C)cc1` (stereo not given), which Potency is on record?
A: The Potency was inconclusive: 44.7 µM [inhibitor, partial curve].

Q: With `CC[C@]12c3[nH]c4ccc(Cl)cc4c3CCN1C(=O)[C@@H](CC(=O)NCCc1ccccn1)C[C@@H]2C(=O)N1CCN(C(=O)C2CC2)CC1` as the compound, how does the Potency read?
A: The Potency was inconclusive: 79.4 µM [inhibitor, partial curve, poor fit].

Q: `COc1ccc(CCc2ccc3ccccc3n2)cc1` was tested. Which Potency did it give?
A: Its Potency is inconclusive: 7.94 µM [inhibitor, single point].

Q: With `O=C(N/N=C/c1coc2ccccc2c1=O)c1cc2ccccc2o1` as the compound, how does the Potency read?
A: The Potency was inconclusive: 20 µM [inhibitor, partial curve].

Q: `CC(=O)c1cccc(NC(=O)Nc2sc3nc4n(c(=O)c3c2C)CCC(C)CC4)c1` (stereo not given) was tested. Which Potency did it give?
A: Its Potency is “inactive”.

Q: How did the Potency turn out when `COc1ccc(CC(=O)Nc2cc(S(=O)(=O)N3CCCC3)ccc2Cl)c(OC)c1` was run?
A: Its Potency is “inactive”.

Q: With `Cc1ccsc1CCN1C(=O)N(c2ccccc2)C(=O)C1CC(=O)Nc1ccc(Cl)cc1` (stereo not given) as the compound, how does the Potency read?
A: The Potency was “inactive”.

Q: How did the Potency turn out when `COCOCCn1cc(CN2CCS(=O)(=O)N(Cc3ccc(-c4ccc(Cl)nc4)cc3)C(C(C)C)C2=O)nn1` (stereo not given) was run?
A: Its Potency is inconclusive: 6.31 µM [inhibitor, full curve, poor fit].

Q: `CC(Sc1nccn1C)C(=O)Nc1ccccc1C#N` (stereo not given) was tested. Which Potency did it give?
A: Its Potency is inconclusive: 112 µM [inhibitor, partial curve, poor fit].

Q: With `COc1ccc2c(c1)OC1(C)CC2C(C(=O)c2ccccc2OC)C(=O)N1` (stereo not given) as the compound, how does the Potency read?
A: Its Potency is inconclusive: 7.94 µM [inhibitor, partial curve, poor fit].

Q: `CCOc1ccccc1NC(=O)COC(=O)COc1cccc2c1OC(C)(C)C2` was tested. Which activity change, negative = inhibition did it give?
A: The activity change, negative = inhibition was inconclusive: -34.1% [inhibitor].

Q: How did the Potency turn out when `Cc1ccc(C)c(NC(=S)/C(=C(\[O-])c2ccc(OC(F)F)cc2)[n+]2ccccc2)c1` was run?
A: Its Potency is inconclusive: 35.5 µM [inhibitor, partial curve].

Q: `COc1ccc(OC)c(-c2csc(NC(=O)C3=NNC(=O)CC3)n2)c1` was tested. Which Potency did it give?
A: Its Potency is inconclusive: 5.01 µM [inhibitor, single point].

Q: Which Potency does the source give for `CC1CCN(S(=O)(=O)N2CCC(C(=O)NCc3ccccc3Cl)CC2)CC1` here?
A: The Potency was “inactive”.

Q: `C/C=C(/C(=C/C)c1ccc(O)cc1)c1ccc(O)cc1` was tested. Which Potency did it give?
A: The Potency was inconclusive: 44.7 µM [inhibitor, partial curve].

Q: For `COc1ccc(NC(=O)CN2C(=O)NC(C)(c3ccccc3)C2=O)c(OC)c1` (stereo not given), which Potency is on record?
A: Its Potency is inconclusive: 35.5 µM [inhibitor, single point].

Q: `COC(=O)CSc1[nH]c2ccc(Br)cc2c1[N+](=O)[O-]` was tested. Which Potency did it give?
A: Its Potency is “inactive”.

Q: `CC[C@@]12C(=O)N(c3cccc(F)c3)C(=O)N1[C@H](c1ccc(F)cc1)[C@@H]1C(=O)N(C3CCCCC3)C(=O)[C@@H]12` was tested. Which Potency did it give?
A: Its Potency is inconclusive: 0.316 µM [inhibitor, full curve].

Q: `CCc1ccc(/C=C2\SC(=S)N(CCCC(=O)Nc3cc(C)on3)C2=O)cc1` was tested. Which Potency did it give?
A: The Potency was inconclusive: 0.251 µM [inhibitor, full curve, poor fit].

Q: How did the Potency turn out when `CC(C)(C)OC(=O)N1CCN(C(=O)c2[nH]cnc2C(=O)N[C@@H](Cc2ccccc2)C(=O)OCc2ccccc2)CC1` was run?
A: The Potency was inconclusive: 0.891 µM [inhibitor, full curve, poor fit].

Q: `CCCCn1c(N)c(N(CCOC)C(=O)c2cccc(-n3cnnn3)c2)c(=O)[nH]c1=O` was tested. Which Potency did it give?
A: The Potency was “inactive”.

Q: For `CCOC(=O)c1cc2sc(C)cc2n1CC(=O)NCc1ccc(F)cc1`, which Potency is on record?
A: Its Potency is inconclusive: 14.1 µM [inhibitor, partial curve].

Q: `CCc1ccc(Nc2n[n+](-c3ccccc3)c(-c3cc(OC)c(OC)cc3Br)s2)cc1` was tested. Which Potency did it give?
A: The Potency was “inactive”.

Q: Which Potency does the source give for `Clc1ccc(CN2CCN(c3ncnc4sc5c(c34)CCCC5)CC2)cc1Cl` here?
A: Its Potency is inconclusive: 6.31 µM [inhibitor, full curve, poor fit].

Q: How did the Potency turn out when `NS(=O)(=O)c1ccc(Nc2nc(-c3ccc(F)cc3)cs2)cc1` was run?
A: Its Potency is “inactive”.

Q: How did the Potency turn out when `O=C1c2ccccc2-c2onc3c(N4CCN(C5CCCCC5)CC4)cc(NCCO)c1c23` was run?
A: The Potency was active: 15.8 µM.

Q: Which Potency does the source give for `CC1CCC/C(=C\Nc2ccc(O)cc2)C1=O` (stereo not given) here?
A: The Potency was “inactive”.

Q: How did the Potency turn out when `O=c1c2ccccc2n2c(=S)[nH]nc2n1-c1ccccc1` was run?
A: Its Potency is inconclusive: 22.4 µM [inhibitor, single point].

Q: How did the Potency turn out when `CCOc1ccc(NC(=O)CSC2=Nc3ccccc3C3=NC(CC(=O)NCc4cccs4)C(=O)N23)cc1` (stereo not given) was run?
A: Its Potency is inconclusive: 50.1 µM [inhibitor, partial curve, poor fit].

Q: For `O=C(Nc1cnc2ccccc2c1)N1CCOCC1`, which Potency is on record?
A: Its Potency is “inactive”.

Q: With `O=C(COC(=O)CCc1nc2ccccc2c(=O)[nH]1)Nc1ccccc1` as the compound, how does the Potency read?
A: Its Potency is inconclusive: 8.91 µM [inhibitor, single point].

Q: How did the Potency turn out when `O=C(CSc1ccccc1Cl)N1CCC(c2nc3ccccc3s2)CC1` was run?
A: The Potency was inconclusive: 0.282 µM [inhibitor, full curve, poor fit].
